No constants are given. Whether binding was seen depends on the method and setting. Some binding calls cover weakened binding; strength is not graded here.
Molecular target: cynomolgus CD74 (in frozen cynomolgus lymph node tissue) (cynomolgus)
Assay: immunohistochemistry on frozen cynomolgus lymph node tissue

B1: HuMab-CD74-006 (antibody, human IgG1, V domains shown)
VH: QVQLVESGGGVVQPGRSLRLSCAASGFTFSSYAMHWVRQAPGKGLEWVAVISYDGSIKYYADSVKGRFTISRDNSKNTLYLQMNSLRVEDTAVFYCARGREITSQNIVILLDYWGQGTLVTVTS
VL: DIQMTQSPSSLSASVGDRVTITCRASQGISSWLAWYQQKPEKAPKSLIYAASSLQSGVPSRFSGSGSGTDFTLTISSLQPEDFATYYCQQYNSYPLTFGGGTKVEIK
notes: Human IgG1,kappa antibody produced transiently in HEK-293F cells; also called antibody 006
With B1 the binding was “binds”.

From patent US20170173151A1 (Genmab, published 2017)
